## Primary screen of a compound library

Protein sequences, listed by entry. Tags and fused reporters are not part of them. Residues count along the entry.
UniProt P9WFT3, whole entry: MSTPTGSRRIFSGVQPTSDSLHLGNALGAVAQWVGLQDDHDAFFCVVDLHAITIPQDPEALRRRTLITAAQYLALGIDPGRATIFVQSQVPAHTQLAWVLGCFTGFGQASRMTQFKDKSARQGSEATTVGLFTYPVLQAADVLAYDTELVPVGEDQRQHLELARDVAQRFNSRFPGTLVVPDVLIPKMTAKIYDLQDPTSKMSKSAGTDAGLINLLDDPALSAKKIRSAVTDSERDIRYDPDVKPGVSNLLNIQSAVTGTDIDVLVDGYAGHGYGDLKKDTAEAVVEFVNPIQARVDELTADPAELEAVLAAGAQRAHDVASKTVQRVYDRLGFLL
UniProt I6X8D2, whole entry: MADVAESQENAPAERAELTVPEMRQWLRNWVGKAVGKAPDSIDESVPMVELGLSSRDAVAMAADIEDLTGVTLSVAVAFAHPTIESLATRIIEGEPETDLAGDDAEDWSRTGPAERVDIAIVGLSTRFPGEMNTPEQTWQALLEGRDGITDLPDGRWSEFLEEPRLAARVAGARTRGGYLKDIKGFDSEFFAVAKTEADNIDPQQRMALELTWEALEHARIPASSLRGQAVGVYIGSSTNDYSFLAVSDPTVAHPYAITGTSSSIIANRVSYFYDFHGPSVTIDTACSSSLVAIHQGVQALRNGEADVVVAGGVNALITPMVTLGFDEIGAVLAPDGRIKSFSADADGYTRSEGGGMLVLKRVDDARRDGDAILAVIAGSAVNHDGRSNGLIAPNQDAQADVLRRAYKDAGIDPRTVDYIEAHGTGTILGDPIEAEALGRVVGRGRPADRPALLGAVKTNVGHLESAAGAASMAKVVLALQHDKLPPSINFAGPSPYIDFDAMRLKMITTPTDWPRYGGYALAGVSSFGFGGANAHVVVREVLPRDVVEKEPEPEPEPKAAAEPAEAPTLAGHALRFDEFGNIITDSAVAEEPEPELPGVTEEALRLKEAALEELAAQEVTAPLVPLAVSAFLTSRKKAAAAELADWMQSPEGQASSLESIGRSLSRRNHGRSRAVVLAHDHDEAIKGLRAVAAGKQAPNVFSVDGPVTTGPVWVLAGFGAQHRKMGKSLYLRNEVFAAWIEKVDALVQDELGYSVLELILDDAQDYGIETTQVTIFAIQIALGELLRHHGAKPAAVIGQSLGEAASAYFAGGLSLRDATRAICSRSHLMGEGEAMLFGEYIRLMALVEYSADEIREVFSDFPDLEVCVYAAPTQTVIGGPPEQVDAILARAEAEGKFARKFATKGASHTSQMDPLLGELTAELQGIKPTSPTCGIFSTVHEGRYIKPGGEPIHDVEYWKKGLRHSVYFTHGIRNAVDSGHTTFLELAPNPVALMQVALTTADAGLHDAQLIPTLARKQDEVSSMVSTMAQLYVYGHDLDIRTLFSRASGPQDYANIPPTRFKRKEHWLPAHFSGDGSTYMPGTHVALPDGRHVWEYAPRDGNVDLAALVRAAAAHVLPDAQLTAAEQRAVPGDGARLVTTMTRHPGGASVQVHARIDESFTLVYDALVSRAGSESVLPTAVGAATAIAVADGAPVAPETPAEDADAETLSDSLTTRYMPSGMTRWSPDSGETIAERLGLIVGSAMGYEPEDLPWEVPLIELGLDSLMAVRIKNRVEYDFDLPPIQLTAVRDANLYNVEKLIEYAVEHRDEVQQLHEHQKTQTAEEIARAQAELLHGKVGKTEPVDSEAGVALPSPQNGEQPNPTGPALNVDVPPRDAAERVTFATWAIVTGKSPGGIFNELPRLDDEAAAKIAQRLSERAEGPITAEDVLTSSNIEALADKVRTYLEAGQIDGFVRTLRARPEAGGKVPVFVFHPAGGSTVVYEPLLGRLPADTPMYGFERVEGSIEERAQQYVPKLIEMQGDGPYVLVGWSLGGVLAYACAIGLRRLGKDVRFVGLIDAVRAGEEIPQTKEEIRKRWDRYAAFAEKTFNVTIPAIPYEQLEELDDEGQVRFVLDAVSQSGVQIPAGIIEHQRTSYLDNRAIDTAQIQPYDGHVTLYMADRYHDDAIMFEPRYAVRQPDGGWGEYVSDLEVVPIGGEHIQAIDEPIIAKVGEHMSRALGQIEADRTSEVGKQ
UniProt A4I591, 1-473: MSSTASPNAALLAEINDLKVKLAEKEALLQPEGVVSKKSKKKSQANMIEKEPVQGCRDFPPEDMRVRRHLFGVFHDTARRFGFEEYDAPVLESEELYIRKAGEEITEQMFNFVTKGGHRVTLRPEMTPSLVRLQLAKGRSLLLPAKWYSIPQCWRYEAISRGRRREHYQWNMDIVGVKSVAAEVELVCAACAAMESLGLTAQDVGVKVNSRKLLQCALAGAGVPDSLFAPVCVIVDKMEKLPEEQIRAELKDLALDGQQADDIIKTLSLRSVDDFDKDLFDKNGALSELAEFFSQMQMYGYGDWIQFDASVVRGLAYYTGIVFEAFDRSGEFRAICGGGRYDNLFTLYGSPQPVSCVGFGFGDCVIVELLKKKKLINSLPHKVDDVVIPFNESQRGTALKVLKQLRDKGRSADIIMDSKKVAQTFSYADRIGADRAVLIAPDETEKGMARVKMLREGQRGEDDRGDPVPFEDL
UniProt Q8IDJ8, 1-583: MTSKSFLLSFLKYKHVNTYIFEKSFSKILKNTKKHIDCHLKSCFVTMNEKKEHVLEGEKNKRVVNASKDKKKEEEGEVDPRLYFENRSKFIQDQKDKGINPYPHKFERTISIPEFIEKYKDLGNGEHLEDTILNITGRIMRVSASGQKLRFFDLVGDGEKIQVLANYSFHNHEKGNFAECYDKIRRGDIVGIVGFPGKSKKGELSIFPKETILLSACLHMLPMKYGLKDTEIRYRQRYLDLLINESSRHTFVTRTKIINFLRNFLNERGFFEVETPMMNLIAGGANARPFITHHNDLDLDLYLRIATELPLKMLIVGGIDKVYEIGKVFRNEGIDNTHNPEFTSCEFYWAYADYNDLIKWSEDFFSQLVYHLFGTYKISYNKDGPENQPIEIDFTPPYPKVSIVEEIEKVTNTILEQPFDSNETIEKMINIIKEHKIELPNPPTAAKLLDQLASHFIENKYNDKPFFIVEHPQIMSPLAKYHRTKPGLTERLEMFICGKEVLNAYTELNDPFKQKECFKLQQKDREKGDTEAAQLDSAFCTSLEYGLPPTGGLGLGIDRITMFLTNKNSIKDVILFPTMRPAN

Each number is a percent effect as filed.
The record does not define 0% and 100%; most values in the screen are far below 50% and negative numbers occur (in some assays of this library far below -100).
Compounds were drawn at random from those tested, without regard to their results.
A dash means the value is not listed here; it may have been measured.

MtTrpRS: 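Tryptophan-tRNA ligase, Mycobacterium tuberculosis (UniProt P9WFT3). Enzyme assay of tryptophanyl-tRNA synthetase; the read-out is not stated. Concentration: 10 µM. Higher most likely means stronger inhibition; the record gives no direction and few retests gave an IC50. Of about 65,000 compounds tested this way, about 64 (0.098%) reached 50% or more in at least one test.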
Pks13 thioesterase: 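Enzyme assay of the thioesterase domain of polyketide synthase 13; the read-out is not stated. Target: Polyketide synthase Pks13, Mycobacterium tuberculosis (UniProt I6X8D2). Concentration: 30 µM. The record gives no direction; the compounds picked for IC50 retests had high values, so higher reads as stronger inhibition. About 67,000 compounds were tested under these conditions; 0.46% (about 300) showed 50% or more at least once.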
LiHisRS: 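Enzyme assay of histidyl-tRNA synthetase; the read-out is not stated. Target: Histidine-tRNA ligase, Leishmania infantum (UniProt A4I591). Concentration: 30 µM. Higher reads as stronger inhibition (inferred: compounds with an IC50 in retests scored well above the rest). The assay is labelled LdHisRS but filed under L. infantum. About 69,000 compounds were tested under these conditions; 0.6% (about 410) showed 50% or more at least once.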
PfKRS1: 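Enzyme assay of the cytosolic lysyl-tRNA synthetase in 384-well plates, read by luminescence. Target: Lysine-tRNA ligase, Plasmodium falciparum 3D7 (UniProt Q8IDJ8). Tested at 30 µM. Direction is inferred from only a few compounds that gave an IC50; most scored high, so higher reads as stronger inhibition. Size under these conditions: about 69,000 compounds, about 49 of them at 50% or above in at least one test.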

SMILES,MtTrpRS,Pks13 thioesterase,LiHisRS,PfKRS1
CC(C)(C)c1n[nH]c(C2CN(CCc3cccs3)CCO2)n1 (stereo unspecified),2.215%,-18.55%,5.128%,-0.7101%
CC(OCC1CC1)C(=O)N1CCCN(c2ncccc2C#N)CC1 (stereo unspecified),3.216%,11.23%,16.67%,-2.537%
Oc1nnc(-c2ccccc2)c2sc(N3CCCCC3)nc12,-2.918%,-29.43%,13.56%,7.814%
Cc1ccccc1-n1cnnc1SCC1CCCCO1 (stereo unspecified),-2.249%,-33.95%,6.25%,3.227%
Cc1nc(CN2CCC(CNC(=O)C3(C#N)CCCC3)CC2)oc1C,-2.726%,-19.97%,9.836%,-1.924%
Cc1cccn2cc(CC(=O)N(CCN(C)C)CC3CCCO3)nc12 (stereo unspecified),-0.7843%,-9.056%,-2.41%,-4.533%
CCN1CCO[C@@H]2CN(C(=O)c3ccc4[nH]ccc4c3)CC[C@@H]2C1,-5.642%,-6.662%,26%,3.621%
Cc1cc(-c2cnc(N3CCNC(=O)C3)nc2-c2sccc2C)on1,-,6.789%,6%,1.742%
O=C(c1cc[nH]n1)N1CCC(Nc2cccnn2)CC1,3.831%,-31.93%,18.67%,-0.8983%
COc1cccc(F)c1CN1CCC(c2nccc(C)n2)C1 (stereo unspecified),-3.034%,24.92%,12.68%,-0.3255%
Cc1c[nH]c(C2CCCN(C(=O)CCc3c(C)n[nH]c3C)C2)n1 (stereo unspecified),-2.344%,-0.3022%,8.633%,-0.1851%
Cc1nc(CNC(=O)NCC(O)c2cccc(Cl)c2)cs1 (stereo unspecified),-7.817%,-16.08%,0%,3.955%
CCn1nccc1CNC(=O)C(C)n1cc2c(n1)c(C)nn2C (stereo unspecified),6.03%,-20.02%,7.767%,4.56%
N#Cc1ccc(F)c(CNC(=O)NC(CO)c2ccccc2)c1 (stereo unspecified),-0.3096%,2.273%,-3.125%,-3.442%
CC(C)CC(NCc1ccsc1)c1ccccn1 (stereo unspecified),-2.304%,0.8483%,4.762%,-10.33%
Cc1nn(C)c(C)c1CN1CCCC1c1nccc(CN(C)C)n1 (stereo unspecified),-,12.66%,19.79%,2.451%
COc1ccc(NC(=O)N2CCN(CCSc3ccccc3)CC2)cc1,1.713%,3.9%,17.24%,4.847%
Cc1cc(C(=O)N2CC[C@@]3(O)CCN(S(C)(=O)=O)C[C@H]3C2)c(C)n1C,0.07128%,-13.29%,15%,4.076%
O=C(c1cnccn1)N1CCCC2(CCN(Cc3cccnc3)C2)C1 (stereo unspecified),-3.614%,-31.12%,21.05%,3.667%
CNC(=O)[C@H]1C[C@@H]2CN(C(=O)NC(C)C)C[C@H]1O2,3.189%,-50.63%,-2%,-2.054%
Cc1nnc(NC(=O)CN2CCc3nn(C(C)C)c(=O)cc3C2)s1,-3.481%,-2.321%,5.769%,-0.7607%
O=C(NCCC(=O)N1CCCc2ccccc21)c1c(O)cc(F)cc1F,4.3%,-22.83%,10.67%,0.9929%
O=C(NCc1cccnc1)C1=NOC2(CCCN(CCO)C2)C1 (stereo unspecified),-2.604%,-24.89%,2.857%,2.461%
O=C(C1CCOCC1)N1C[C@@H]2C[C@@H](c3nc(C4CC4)cs3)O[C@@H]2C1,0.5757%,-20.66%,19.05%,-0.3544%
COCCN1CCC(NC(=O)C/C=C/c2ccc(C(C)C)cc2)CC1,0.4112%,-0.69%,7.843%,3.465%
O=c1[nH]c(C2CCOC2)nc2cc(F)c(F)cc12 (stereo unspecified),2.465%,-14%,11.9%,2.571%
CC(=O)N1CCN(C(=O)NCc2csc(Br)c2)CC1,0.4859%,-5.916%,18.46%,4.185%
O=C1CO[C@H](c2ccc(NS(=O)(=O)Cc3ccccc3)cc2)[C@@H](CO)N1,1.907%,10.58%,18.92%,3.195%
CCOc1ccccc1C(=O)N1CCCC(O)(CN(C)C)C1 (stereo unspecified),-3.579%,2.113%,-7.527%,-0.6312%
O=C(C1CC1)N1CC[C@H](c2nnc(Cc3c[nH]c4ccccc34)o2)C1,-0.2288%,6.101%,29.73%,2.13%
CCOC(=O)C1=NOC(Cc2cc(OC)c3c(c2)OCO3)C1 (stereo unspecified),-4.608%,-2.305%,-7.143%,-6.835%
O=C1CC[C@H](C(=O)Nc2cnn(-c3ccccc3Br)c2)N1,2.821%,0.8284%,7.317%,-2.712%
CNC(=O)c1cc(C)nc(C2(C)CCCN2c2cc(C)ncn2)n1 (stereo unspecified),-9.675%,1.472%,11.59%,0.1281%
O=C(O)c1cc2n(n1)CCCN(C(=O)CCc1c[nH]c3ccccc13)C2,2.171%,-2.378%,14.17%,3.014%
O=C(CS(=O)(=O)Cc1cc(Cl)c2c(c1)OCCCO2)NCC1CC1,-2.292%,3.989%,13.56%,3.433%
c1cc(CN2CCC(c3nnc4n3CCCCC4)CC2)c2c(c1)OCO2,-3.137%,-30.13%,21.69%,1.982%
c1ccc(CN2CCN3C[C@H](Oc4cncnc4)C[C@H]3C2)nc1,-,3.112%,15.32%,5.003%
CS(=O)(=O)N1CCO[C@@H]2CN(Cc3ccncc3)C[C@@H]2C1,3.03%,-14.94%,15.79%,0.32%
CC(C)CCN(C(=O)c1ccc(-n2ncc(C#N)c2N)cc1)C1CC1,-1.874%,-8.019%,-237.6%,0.9647%
OC[C@@H](O)CN(CCC(F)(F)F)c1ncc(Cl)cn1,1.09%,-24.24%,17.54%,3.005%
CC(CO)N(C)C(=O)c1cn(-c2ccc(Br)cc2)cn1 (stereo unspecified),-0.09551%,-14.81%,5.479%,4.238%
N#Cc1cccc(CNCCNC(=O)Cc2cccc(F)c2)c1,6.426%,-23.31%,0%,-0.006736%
CCc1ccc(OCCn2cccn2)cc1,5.432%,-14.36%,-2.083%,3.031%
CC(C)c1nc(CN(C)C2CCCN(c3cccnn3)C2)no1 (stereo unspecified),5.842%,-12.16%,6.957%,-0.3705%
O=C(Cc1cccc(F)c1)N1CCN2C[C@H](Oc3cncnc3)C[C@H]2C1,-1.022%,-1.459%,22.22%,1.91%

For reference, 5 entries once more:

* CNC(=O)[C@H]1C[C@@H]2CN(C(=O)NC(C)C)C[C@H]1O2 | MtTrpRS: 3.189%; Pks13 thioesterase: -50.63%; LiHisRS: -2%; PfKRS1: -2.054%
* O=C(c1cnccn1)N1CCCC2(CCN(Cc3cccnc3)C2)C1 (stereo unspecified) | MtTrpRS: -3.614%; Pks13 thioesterase: -31.12%; LiHisRS: 21.05%; PfKRS1: 3.667%
* O=C1CO[C@H](c2ccc(NS(=O)(=O)Cc3ccccc3)cc2)[C@@H](CO)N1 | MtTrpRS: 1.907%; Pks13 thioesterase: 10.58%; LiHisRS: 18.92%; PfKRS1: 3.195%
* N#Cc1ccc(F)c(CNC(=O)NC(CO)c2ccccc2)c1 (stereo unspecified) | MtTrpRS: -0.3096%; Pks13 thioesterase: 2.273%; LiHisRS: -3.125%; PfKRS1: -3.442%
* O=C(NCCC(=O)N1CCCc2ccccc21)c1c(O)cc(F)cc1F | MtTrpRS: 4.3%; Pks13 thioesterase: -22.83%; LiHisRS: 10.67%; PfKRS1: 0.9929%

Measurements from “University of Dundee, Small-Polar-MMV Screening Library” (2021), ChEMBL document CHEMBL3988442.